# Assay results published in publication PMC3285215.
# No constants are given. Whether binding was seen depends on the method and setting. Binding can be weak; no strength is given.
# Assays:
# [1] = target: PthA3 fused to the GAL4-BD domain (Xanthomonas citri); experiment: two-hybrid; baits in pOBD (GAL4-BD) and full-length preys in pOAD (GAL4-AD); SC -Trp -Leu -His -Ade with 5 mM 3AT, 5 days at 30°C
# [2] = target: CsTRAX, translin-associated factor X (two-hybrid fusion) (Citrus sinensis (sweet orange)) (UniProt G9I826); experiment: as above
# [3] = target: CsSMC, structural maintenance of chromosomes domain-containing protein (two-hybrid fusion) (Citrus sinensis (sweet orange)) (UniProt G9I822); experiment: as above
# [4] = target: CsPABP2, poly(A)-binding protein (two-hybrid fusion) (Citrus sinensis (sweet orange)) (UniProt G9I828); experiment: as above
# [5] = target: CsPABP1, poly(A)-binding protein (two-hybrid fusion) (Citrus sinensis (sweet orange)) (UniProt G3LUH8); experiment: as above
# [6] = target: PthA1 fused to the GAL4-BD domain (Xanthomonas citri); experiment: as above
# [7] = target: GST-CsTRAX (Citrus sinensis (sweet orange)) (UniProt G9I826); experiment: pull-down; GST or GST fusions immobilized on glutathione resin; about 50 µg of purified 6xHis-tagged protein, 2 h at 4°C; four PBS washes, elution with reduced glutathione; Western blot; both purified
# [8] = target: GST-CsHMG (Citrus sinensis (sweet orange)) (UniProt G9I829); experiment: as above
# [9] = target: GST-CsHAP3 (Citrus sinensis (sweet orange)) (UniProt G9I824); experiment: as above
# [10] = target: GST-CsSMC (Citrus sinensis (sweet orange)) (UniProt G9I822); experiment: as above
# [11] = target: CsPCBP, poly(C)-binding protein with a KH domain (two-hybrid fusion) (Citrus sinensis (sweet orange)) (UniProt G9I825); experiment: two-hybrid; baits in pOBD (GAL4-BD) and full-length preys in pOAD (GAL4-AD); SC -Trp -Leu -His -Ade with 5 mM 3AT, 5 days at 30°C
# [12] = target: CsVIP2, VirE2-interacting protein (two-hybrid fusion) (Citrus sinensis (sweet orange)) (UniProt G9I827); experiment: as above
substance,measurement,setting,value
"CsPABP1, poly(A)-binding protein (two-hybrid fusion) (from UniProt G3LUH8)",binding,[1],binds
same,binding,[2],binds
same,binding,[3],binds
"CsTRAX, translin-associated factor X (two-hybrid fusion) (from UniProt G9I826)",binding,[1],binds
"CsHMG, high-mobility group protein (two-hybrid fusion) (from UniProt G9I829)",binding,[1],binds
same,binding,[4],binds weakly
same,binding,[5],binds weakly
same,binding,[6],binds
"CsPCBP, poly(C)-binding protein with a KH domain (two-hybrid fusion) (from UniProt G9I825)",binding,[1],binds
6xHis-PthA3 (from UniProt A0AAI7ZJD8 1-1096),binding,[7],binds
same,binding,[8],binds
same,binding,[9],binds
same,binding,[10],binds
"CsSMC, structural maintenance of chromosomes domain-containing protein (two-hybrid fusion) (from UniProt G9I822)",binding,[1],binds
"CsVIP2, VirE2-interacting protein (two-hybrid fusion) (from UniProt G9I827)",binding,[4],binds
same,binding,[11],binds
"CsPABP2, poly(A)-binding protein (two-hybrid fusion) (from UniProt G9I828)",binding,[1],binds
same,binding,[3],binds
same,binding,[12],binds
"CsHAP3, homolog of the OsHAP3A transcriptional factor (two-hybrid fusion) (from UniProt G9I824)",binding,[1],binds
6xHis-PthA1 (from UniProt A0AAI7ZJD3 1-1126),binding,[8],binds
